Laboratory results as given in publication PMC5832848.
No constants are given. Whether binding was seen depends on the method and setting. Binding seen in cells or lysates may run through a third protein. Some results given as binding are weak or reduced against the parent protein; the word gives no strength. Sequences can lack the tags named with a protein. One block for each molecule: values may come before it.

Amino acid sequences for entries named in this document (tags omitted).
UniProt P06733: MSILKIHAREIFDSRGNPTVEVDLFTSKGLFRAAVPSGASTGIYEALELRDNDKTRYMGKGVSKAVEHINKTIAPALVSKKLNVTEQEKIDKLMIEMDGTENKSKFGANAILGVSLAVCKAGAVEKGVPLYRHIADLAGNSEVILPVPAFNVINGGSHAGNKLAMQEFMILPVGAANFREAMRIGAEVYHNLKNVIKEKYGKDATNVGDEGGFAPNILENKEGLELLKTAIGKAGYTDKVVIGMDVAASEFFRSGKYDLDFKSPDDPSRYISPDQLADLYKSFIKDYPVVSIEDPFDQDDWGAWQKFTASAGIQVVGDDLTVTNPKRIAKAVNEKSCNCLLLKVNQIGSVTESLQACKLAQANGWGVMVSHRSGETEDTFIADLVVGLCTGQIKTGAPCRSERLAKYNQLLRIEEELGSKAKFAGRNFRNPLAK

Biological target: T1, recombinant human GST-WBP2 protein (WW domain-binding protein 2) (human) (UniProt Q969T9)
T1 sequence: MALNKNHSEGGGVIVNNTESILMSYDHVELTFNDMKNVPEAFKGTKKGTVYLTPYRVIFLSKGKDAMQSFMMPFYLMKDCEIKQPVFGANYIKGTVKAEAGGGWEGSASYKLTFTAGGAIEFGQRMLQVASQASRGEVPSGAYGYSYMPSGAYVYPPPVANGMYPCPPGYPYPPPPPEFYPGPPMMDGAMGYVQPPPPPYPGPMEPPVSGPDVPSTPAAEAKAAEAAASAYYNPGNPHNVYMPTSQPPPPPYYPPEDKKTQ
Assay: pull-down; purified L-glutathione-sepharose-immobilized GST-WBP2 incubated with lysates of U251 cells overexpressing ENO1 or Homer3; SDS-PAGE and blot with specific primary antibody; only the target purified

binding: binds
Molecule: exogenous ENO1 (α-enolase) transfected in U251 cells (from UniProt P06733 1-434) (enzyme)

binding: binds
B1: exogenous Homer3 (Homer protein homolog 3) transfected in U251 cells (protein, UniProt Q9NSC5 1-361)
chain: MSTAREQPIFSTRAHVFQIDPATKRNWIPAGKHALTVSYFYDATRNVYRIISIGGAKAIINSTVTPNMTFTKTSQKFGQWADSRANTVYGLGFASEQHLTQFAEKFQEVKEAARLAREKSQDGGELTSPALGLASHQVPPSPLVSANGPGEEKLFRSQSADAPGPTERERLKKMLSEGSVGEVQWEAEFFALQDSNNKLAGALREANAAAAQWRQQLEAQRAEAERLRQRVAELEAQAASEVTPTGEKEGLGQGQSLEQLEALVQTKDQEIQTLKSQTGGPREALEAAEREETQQKVQDLETRNAELEHQLRAMERSLEEARAERERARAEVGRAAQLLDVSLFELSELREGLARLAEAAP
